Source: PubChem BioAssay AID2685 (National Center for Advancing Translational Sciences (NCATS), 2010)
Several values for one entry are separate records, joined by “and”; a condition that tells them apart may be missing. Equal values may be shown once. The list shows a part of the results. The main result of the screen is listed elsewhere. These columns were measured beside it and carry no call. The list favours compounds with an active or inconclusive main result. The note in brackets gives the kind of curve behind each potency; many fits are weak.

Experiment: qHTS Assay for Lipid Storage Modulators in Drosophila S3 Cells;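 for cell number change: cells counted by Cell Tracker Red CMTPX staining in the red channel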
Conditions: BODIPY lipid droplet fluorescence, 18-24 h; for cell number change: measured here: cell count max response, cells fed with added oleic acid
Outline: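 Drosophila S3 cells got compounds at several concentrations plus oleic acid (400 uM solution). Laser-scanning cytometry with 488 nm excitation read lipid droplets at 500-530 nm and cells at 575-640 nm. Percent activity was relative to 20 uM Triacsin C.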

[1] = measured here: lipid fluorescence (Fed channel) AC50, cells fed with added oleic acid
[2] = measured here: cell number channel AC50, cells fed with added oleic acid

Cc1ccc(S(=O)(=O)N(C)C/N=C(\N)N[N+](=O)[O-])cc1
cell number change: -14.9% | AC50 [1]: 0.461 µM [falling, full curve]

COC(=O)C1=Nc2ccccc2/C1=C\c1c(O)n(-c2ccc(OC)cc2)c(=O)[nH]c1=O
cell number change: -24.9% | AC50 [1]: 6.51 µM [falling, single point]

Cc1ccc(-n2c(C)cc(/C=C3/C(=O)NC(=O)N(C)C3=O)c2C)cc1
cell number change: -40.4% | AC50 [2]: 29.1 µM [falling, single point]

CN(C)C(=O)Oc1ccc2c(c1)O/C(=C\c1cccc([N+](=O)[O-])c1)C2=O
AC50 [2]: 0.58 µM [rising, single point]

C1CCC2CCCCC2C1 (centres undefined)
cell number change: 8.41% | AC50 [2]: 0.13 µM [falling, single point]

Cc1c(N=Nc2c(O)n(-c3ccc(Br)cc3)c(=O)[nH]c2=O)c(=O)n(-c2ccccc2)n1C
cell number change: 33% | AC50 [2]: 23.1 µM [rising, single point]

CN1C(=O)NC(=O)/C(=C\C=C\c2ccccc2[N+](=O)[O-])C1=O
cell number change: -60.5% | AC50 [2]: 23.1 µM [falling, single point] | AC50 [1]: 20.6 µM [falling, single point]

COC(=O)C1=C(c2ccc(OC(F)(F)F)cc2)C[C@@H]2CC[C@H]1N2C(=O)N1CCCCC1
cell number change: -7.31% | AC50 [2]: 6.51 µM [falling, single point] | AC50 [1]: 3.26 µM [falling, single point]

CC1(CCl)CN1S(=O)(=O)c1ccccc1 (centres undefined)
cell number change: -37.8% | AC50 [2]: 6.51 µM [falling, full curve]

COc1cc(/C=C/[N+](=O)[O-])ccc1O
cell number change: -52% | AC50 [2]: 13 µM [falling, partial curve] | AC50 [1]: 5.8 µM [falling, full curve]

CN1CCC(N2CC3CC(C2)c2cccc(=O)n2C3)CC1 (centres undefined)
cell number change: -19.2% | AC50 [1]: 32.6 µM [falling, single point]

O=C(O)c1ccc(NC(=O)N2C[C@H]3C[C@@H](C2)c2cccc(=O)n2C3)cc1
cell number change: 30.6% | AC50 [2]: 13 µM [rising, partial curve]

CCCCCCC[n+]1ccc(-c2cc[n+](CCCCCCC)cc2)cc1
cell number change: -36% | AC50 [2]: 20.6 µM [falling, single point] | AC50 [1]: 25.9 µM [falling, single point]

O=c1[nH]c(=S)n(-c2ccc(Cl)cc2)c(O)c1/C=N/N1CCOCC1
cell number change: -34.8% | AC50 [2]: 29.1 µM [falling, single point] | AC50 [1]: 32.6 µM [falling, single point]

COc1ccc(CNC(=O)Cn2c(=O)oc3cc(S(=O)(=O)N4CCCC4)ccc32)cc1
AC50 [2]: 4.11 µM [falling, full curve, poor fit]

Cc1ccc(/C=C2\C(=O)NC(=S)N(c3ccc(F)cc3)C2=O)o1
cell number change: 31.1% | AC50 [2]: 32.6 µM [rising, single point] | AC50 [1]: 29.1 µM [rising, single point]

Cc1nc2ccccc2c(=O)n1-c1cccc([N+](=O)[O-])c1
cell number change: 14.2% | AC50 [1]: 29.1 µM [rising, single point]

Cn1cc(C(=O)c2ccccc2)c2ccccc21
cell number change: -2.45% | AC50 [2]: 0.00517 µM [falling, full curve, poor fit]

Cc1ccsc1C(=O)C1CCCN(Cc2ccn[nH]2)C1 (centres undefined)
cell number change: 6.59% | AC50 [1]: 0.00411 µM [rising, full curve, poor fit]

O=[N+]([O-])c1ccc(-[n+]2c(-c3ccccc3)cc(-c3ccccc3)cc2-c2ccccc2)cc1
cell number change: -29% | AC50 [1]: 11.6 µM [falling, single point]

COc1ccc2[nH]c(C)c(CCN3CCC(=O)C(C)C3C)c2c1 (centres undefined)
cell number change: 17% | AC50 [1]: 0.00517 µM [rising, full curve, poor fit]

COC(=O)C1=C(c2ccc(OC(F)(F)F)cc2)C[C@@H]2CC[C@H]1N2C(=O)NCc1ccc(F)cc1
cell number change: -44% | AC50 [2]: 25.9 µM [falling, single point] | AC50 [1]: 4.61 µM [falling, single point]

CCOc1cc2c(cc1OCC)-n1cccc1C(c1cccc(F)c1F)NC2 (centres undefined)
cell number change: 56.3% | AC50 [2]: 29.1 µM [rising, single point]

COc1cc(/C=C2\C(=O)NC(=O)N(c3ccccc3)C2=O)cc(OC)c1OC
AC50 [1]: 0.58 µM [falling, full curve]

O=c1[nH]c(=S)[nH]c(O)c1N=Nc1cc(S(=O)(=O)Nc2ccc(Cl)cc2)ccc1Cl
cell number change: -51.9% | AC50 [2]: 23.1 µM [falling, partial curve] | AC50 [1]: 0.58 µM [falling, full curve]

O=C(Cn1cnc2ccccc2c1=O)NCC(=O)N1CCC2(CC1)OCCO2
cell number change: -9.2% | AC50 [2]: 0.231 µM [falling, full curve, poor fit] | AC50 [1]: 1.16 µM [falling, full curve]

Cc1cc(OC(=O)N(C)C)nc(SCc2c(Cl)cccc2Cl)n1
cell number change: 21.4% | AC50 [1]: 6.51 µM [rising, partial curve, poor fit]

CC(=O)Nc1ccccc1OC(=O)N(C)C
cell number change: -25.1% | AC50 [1]: 0.184 µM [falling, full curve, poor fit]

COC(=O)C1=C(c2ccc(F)cc2OCc2ccccc2)C[C@@H]2CC[C@H]1N2C(=O)NCCO
cell number change: -22.5% | AC50 [2]: 0.651 µM [falling, full curve, poor fit] | AC50 [1]: 0.82 µM [falling, single point]

CN1CCN(c2cccc3c2C(=O)c2ccccc2C3=O)CC1
cell number change: -18.6% | AC50 [1]: 8.2 µM [falling, full curve, poor fit]

O=c1[nH]c(=O)n(CCC2=CCCCC2)c(O)c1C=NCCCn1ccnc1
cell number change: -12.9% | AC50 [1]: 4.61 µM [rising, partial curve]

Cc1ccc(-c2nn(Cc3ccccc3)cc2C=O)cc1
cell number change: -18% | AC50 [1]: 8.2 µM [rising, partial curve]

O=c1[nH]c(=O)n(-c2ccccc2F)c(O)c1C=NCCC1=CCCCC1
cell number change: -41.2% | AC50 [2]: 29.1 µM [falling, single point] | AC50 [1]: 29.1 µM [falling, single point]

Cc1cccc(N2CCc3c2nc2ccccc2c3N)c1
cell number change: 9.74% and -22% | AC50 [2]: 0.146 µM [rising, full curve, poor fit] | AC50 [1]: 0.517 µM [rising, full curve]

CCOC(=O)CN1C(=O)C2(C(C#N)=C(N)Oc3ccccc32)C(C(=O)OC)=C1C (centres undefined)
cell number change: -63.5% | AC50 [2]: 5.8 µM [falling, full curve] | AC50 [1]: 1.16 µM [falling, partial curve, poor fit]

COc1ccc(C(CNC(=O)Cc2ccc(Cl)c(Cl)c2)N2CCCCC2)cc1 (centres undefined)
cell number change: 40.1% | AC50 [2]: 29.1 µM [rising, single point] | AC50 [1]: 0.259 µM [rising, full curve, poor fit]

CCCCc1nc2ccccc2c(=O)n1-c1ccc(O)cc1
cell number change: -35% | AC50 [2]: 18.4 µM [falling, single point] | AC50 [1]: 29.1 µM [falling, single point]

CN1C(=O)C(=Cc2ccccc2OS(=O)(=O)c2ccccc2)C(=O)N(C)C1=O
cell number change: -11.6%

Cc1cccc(CCNCc2cc3ccc(C)cc3[nH]c2=O)c1
cell number change: -33.3% | AC50 [2]: 16.4 µM [falling, single point]

O=C1NC(=O)C(=Cc2csc3ccccc23)C(=O)N1
cell number change: -8.15% | AC50 [1]: 3.26 µM [falling, single point]

CCOc1cccc(N2C(=O)/C(=C/c3ccco3)C(=O)NC2=S)c1
cell number change: -11.7% | AC50 [1]: 2.91 µM [rising, partial curve]

N[C@@H](Cc1ccc(N(CCCl)CCCl)cc1)C(=O)O
cell number change: 38.3% | AC50 [2]: 10.3 µM [rising, partial curve, poor fit] | AC50 [1]: 11.6 µM [rising, partial curve, poor fit]

CC(C)=CCOc1c2occc2cc2ccc(=O)oc12
cell number change: -0.107% | AC50 [2]: 0.184 µM [rising, full curve] | AC50 [1]: 0.517 µM [rising, full curve]

Cc1[nH]c2ccccc2c1CCNCc1ccco1
cell number change: -8.06%

CCOc1cc(C=C2C(=O)NC(=O)NC2=O)ccc1OS(=O)(=O)c1ccccc1
cell number change: 68.3% | AC50 [1]: 6.51 µM [falling, single point]

CCn1cc(C(=O)N2CCC3(CC2)OCCO3)c(=O)c2cc(S(=O)(=O)N3CCCC3)ccc21
AC50 [2]: 4.61 µM [falling, single point]

CCCCn1c(NC(=O)c2ccco2)c(C(=O)OCC)c2nc3ccccc3nc21
cell number change: -5.46% | AC50 [1]: 2.31 µM [rising, partial curve]

COc1cc(C(CN)CC(=O)O)ccc1O (centres undefined)
cell number change: -1.98%

OC1CCCCC1N1CCC(c2ccccc2)CC1 (centres undefined)
AC50 [2]: 0.461 µM [rising, single point] | AC50 [1]: 0.231 µM [rising, full curve]

COc1ccc(C(O)c2cc(OC)ccc2OP(=O)(N(C)C)N(C)C)cc1 (centres undefined)
cell number change: 40% | AC50 [2]: 29.1 µM [rising, single point]

COC(=O)C1=C(c2ccc(OC)c(OC)c2)C[C@@H]2CC[C@H]1N2C(=O)NCCOc1ccc(OC)cc1
cell number change: -3.73%

CCC(=O)CC(c1ccccc1)c1c(O)c2ccccc2sc1=O (centres undefined)
cell number change: -5.9% | AC50 [1]: 0.231 µM [falling, full curve]

CCC1(C)CC(CCNCc2ccc(N(C)C)cc2)(c2ccc(F)cc2)CCO1 (centres undefined)
cell number change: -13.4% | AC50 [2]: 0.517 µM [falling, single point] | AC50 [1]: 0.651 µM [falling, single point]

CC(=NCCN1CCCCC1)c1c(O)n(-c2ccc(Cl)cc2)c(=O)[nH]c1=O
cell number change: -12% | AC50 [2]: 6.51 µM [rising, single point] | AC50 [1]: 3.66 µM [falling, single point]
